Laboratory results reported in patent US20250230246A1.
Results are given in words; binding and its absence hold for the method and conditions named. Some results given as binding are weak or reduced against the parent protein; the word gives no strength.

The chains behind the UniProt entries cited, without tags or fusion partners.
UniProt P26718: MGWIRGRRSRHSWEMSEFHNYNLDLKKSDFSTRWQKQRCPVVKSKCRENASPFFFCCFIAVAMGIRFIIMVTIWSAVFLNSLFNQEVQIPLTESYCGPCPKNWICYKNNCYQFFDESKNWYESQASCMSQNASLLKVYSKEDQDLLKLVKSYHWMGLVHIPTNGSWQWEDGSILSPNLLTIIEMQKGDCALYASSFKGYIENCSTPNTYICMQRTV

Target: NKG2D expressed on the membrane of CHO cells (UniProt P26718)
Experiment: binding of biotinylated protein to transfected CHO cells (FIG. 1A)

- binding: binds
B1: biotinylated MICB (ligand, human, UniProt Q29980 23-309, looked up)
chain: AEPHSLRYNLMVLSQDGSVQSGFLAEGHLDGQPFLRYDRQKRRAKPQGQWAENVLGAKTWDTETEDLTENGQDLRRTLTHIKDQKGGLHSLQEIRVCEIHEDSSTRGSRHFYYDGELFLSQNLETQESTVPQSSRAQTLAMNVTNFWKEDAMKTKTHYRAMQADCLQKLQRYLKSGVAIRRTVPPMVNVTCSEVSEGNITVTCRASSFYPRNITLTWRQDGVSLSHNTQQWGDVLPDGNGTYQTWVATRIRQGEEQRFTCYMEHSGNHGTHPVPSGKALVLQSQRTD
modifications: biotinylated (site not stated)
